According to the supplement of paper PMC8846439:
Structures can show the parent of a compound that is named as a salt. Some of the results follow. Many values rest on one well or one pass, so single values are uncertain.

Test system: Trypanosoma brucei brucei bloodstream form L262P (kDNA-independent)
Test: viability Z-score (nuclei count per well, median-polish normalised, relative to plate distribution); higher = more viable parasites (negative = growth inhibition)
Conditions: 4 days; compound concentration: 10 µM (some Prestwick/PKE rows may be 1 µM / not distinguished)

Compound	viability Z-score
CCN(CC)CCCC(C)Nc1c2ccc(Cl)cc2nc2ccc(OC)cc12 (stereo not drawn) [Quinacrine dihydrochloride hydrate]	-3.76
C[C@H]1CCc2ccccc2N1C(=N)N(C)C	-1.1
CCOC(=O)c1c(NC(=O)CSc2nnc(-c3ccco3)o2)sc(C)c1C	-3.17
CC1(C)SC2C(NC(=O)Cc3ccccc3)C(=O)N2C1C(=O)O.CC1(C)SC2C(NC(=O)Cc3ccccc3)C(=O)N2C1C(=O)O.c1ccc(CNCCNCc2ccccc2)cc1 (stereo not drawn) [Benzathine benzylpenicillin]	-2.83
O=C(N/C1=C/C=CC=C1)C2=NO[C@]([H])(C2)C(=O)OC	-4.69
O=[S](=O)(C=1/C=C(/[Br])C=C2CCN(C=12)C(=O)C3([H])CC3)N4CCN(CC4)C5=CC=CC=C5	-4.95
CSc1nc(Cl)cn(C)c1=O	-5.83
N#C/C4=C3\N=NC(NC=1N/N=C(/C)C=1C=2C=CC=CC=2)=C(C)N3/N=C4/C=5C=CC=CC=5	-5.68
CC(C)C[C@H](NC(=O)c1cccc(F)c1)c1ccccc1	-1.41
COc1ccc(S(=O)(=O)N(CC(=O)NO)CC(C)C)cc1	-5.47
N#C/C2=C(/NC(C)=C(C(=O)NC=1C=CC=CC=1[F])[C@@]2([H])C=3OC=CC=3)[S]CC(=O)C=4C=CC(C)=CC=4	-2.49
CC[C@@H]1C(=O)C[C@@H](c2ccc([N+](=O)[O-])cc2)N[C@H]1c1ccc([N+](=O)[O-])cc1	-4.96
CC=2C=1NC(=NC=1C(C)=C(C)C=2C)[S]C/C3=N/C(=NO3)C4=CC(=CC(=C4)C([F])([F])[F])C([F])([F])[F]	-2.8
O=C(N/C1=C/C=CC2=N[S]N=C12)C4=CC=3OCOC=3C=C4	-4.37
CS/C(=N/C(=O)c1c(Cl)cccc1Cl)NCCc1ccc(Cl)cc1	-1.56
CCOC(=O)NC12C[C@@H]3C[C@@H](CC(CC)(C3)C1)C2	-2.31
O=[S](=O)(NCC(=O)O)C1=CC=C(/C=C1/[I])[N+]([O-])=O	-2.14
CCOC(=O)/N=c1/c[n+](N2CCOCC2)[n-]o1 [Molsidomine]	-2.83
CNC(=O)CN(c1cccc(C(F)(F)F)c1)S(=O)(=O)c1ccccc1	-5.01

Rewritten bar-delimited: part of the list above.
Compound | viability Z-score
O=C(N/C1=C/C=CC2=N[S]N=C12)C4=CC=3OCOC=3C=C4 | -4.37
CS/C(=N/C(=O)c1c(Cl)cccc1Cl)NCCc1ccc(Cl)cc1 | -1.56

Remaining list, next part

Compound	viability Z-score
Cc1nnc(NC(=O)COn2nnc3ccc([N+](=O)[O-])cc32)s1	-6.15
Cc1cccc(-c2nc3c(cnn3-c3ccccc3)c(=O)[nH]2)c1	-2.16
N/C2=N/C1=N[S]C(N)=C1C(=N2)NCC=C	-7
O=C(N/C1=N/C=C/C=C1/C)C=2C=CC([Cl])=CC=2[Cl]	-6.03
O=C(C=3C=C2N1C=NN=C1C(=NC2=CC=3)NC=4/C=C(/OC)C(=CC=4)OC)C5=CC=CC=C5	-7.17
CC1CC2C3CC(F)C4=CC(=O)C=CC4(C)C3(F)C(O)CC2(C)C1(O)C(=O)COC(=O)C(C)(C)C (stereo not drawn) [Flumethasone pivalate]	-1.92
O=C4N(NC(=O)[C@@]2(O)C=1C=CC=CC=1C=3C=CC=CC2=3)C(=O)[C@@]6([H])[C@]4([H])[C@]7([H])C=5C=CC=CC=5[C@@]6([H])C=8C=CC=CC7=8	-5.77
O=C(C=Cc1ccc(Br)cc1)NC(=S)NNC(=O)c1ccco1	-3.87
N#C/C2=C(\N)OC=1N=C/N=C(/O)C=1[C@@]2([H])C3=C[S]C=C3	-5.54
O=C(C[S]/C1=N/N=C2C=CC=CN12)C3=CC=CC=C3	-3.96
COc1cc(/C=N/N2CCN(c3ccc(C)cc3)CC2)ccc1OCc1ccccc1	-4.79
O=C(N2C=1C=CC=CC=1C(C)=CC2(C)C)C3=C/C=C(/[F])C=C3	-3.76
O=[S](=O)(C=1N=C([S]C=1[Cl])OCC)C2=C/C=C(/C)C=C2	-4.15
O=C(NC=1/C=C(/[Br])C=CC=1O)C2=NOC=3CCCCCC2=3	-1.43
O=C(N[C@]1([H])CCCCC1)[C@@]2(CCCCC2)N(C=O)C(C)(C)[H]	-2.11
O=C1NC(=O)C(=CN1/C2=C/C=C(/[Cl])C=C2)C#N	-2.82
CCCC(CCC)C(=O)O [Valproic acid]	-5.26
O=C(N/C1=C/C=C(C=C1)OCCCC)C=2N=CC(C)=NC=2	-2.24
C[C@@H]1CN(C(=S)c2cccc([N+](=O)[O-])c2)C[C@H](C)O1	-2.02
